Measured values from paper doi:10.1101/2020.01.07.896860.
Results are given in words; binding and its absence hold for the method and conditions named. In cells and extracts the contact can be indirect. Some results given as binding are weak or reduced against the parent protein; the word gives no strength. Blank lines part the entries; values can stand above or below the substance they belong to.

Amino acid sequences for entries named in this document (tags omitted). A change or cut given only in a name is not applied to a line headed by its entry.
UniProt Q6IAA8: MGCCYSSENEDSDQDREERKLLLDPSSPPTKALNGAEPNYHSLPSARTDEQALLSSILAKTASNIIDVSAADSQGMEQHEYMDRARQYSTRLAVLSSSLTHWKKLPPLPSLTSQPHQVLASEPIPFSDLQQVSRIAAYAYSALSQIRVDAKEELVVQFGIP
UniProt Q9CQ22: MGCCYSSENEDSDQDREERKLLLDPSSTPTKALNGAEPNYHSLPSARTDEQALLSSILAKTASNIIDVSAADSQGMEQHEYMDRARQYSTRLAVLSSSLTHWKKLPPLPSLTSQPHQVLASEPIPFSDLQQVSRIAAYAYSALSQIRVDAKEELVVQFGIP
UniProt P46414: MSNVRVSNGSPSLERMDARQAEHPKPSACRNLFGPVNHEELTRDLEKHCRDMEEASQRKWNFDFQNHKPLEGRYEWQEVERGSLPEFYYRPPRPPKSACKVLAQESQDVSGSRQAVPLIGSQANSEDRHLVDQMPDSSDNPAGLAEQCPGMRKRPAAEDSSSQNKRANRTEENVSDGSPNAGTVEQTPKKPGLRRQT
UniProt P46527: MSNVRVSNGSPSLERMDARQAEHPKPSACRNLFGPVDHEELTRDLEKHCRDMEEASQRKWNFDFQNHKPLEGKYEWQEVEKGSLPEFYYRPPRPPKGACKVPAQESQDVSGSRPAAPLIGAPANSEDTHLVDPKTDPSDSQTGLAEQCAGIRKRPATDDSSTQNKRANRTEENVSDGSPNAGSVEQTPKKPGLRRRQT
UniProt Q9JHS3: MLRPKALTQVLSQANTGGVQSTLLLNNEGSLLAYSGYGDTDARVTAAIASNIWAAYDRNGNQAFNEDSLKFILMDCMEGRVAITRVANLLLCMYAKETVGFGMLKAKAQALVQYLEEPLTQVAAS
UniProt O88653: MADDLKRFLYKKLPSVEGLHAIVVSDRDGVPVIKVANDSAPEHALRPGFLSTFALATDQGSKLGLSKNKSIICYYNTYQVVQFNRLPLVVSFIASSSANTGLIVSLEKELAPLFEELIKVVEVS

How the values were obtained:
[1] = target: LAMTOR1 (endogenous, U251N cells) (human (endogenous in U251N)) (UniProt Q6IAA8); assay: co-IP
[2] = target: LAMTOR1 (endogenous, MEFs) (mouse (endogenous in MEFs)) (UniProt Q9CQ22); assay: proximity ligation
[3] = target: p27 (endogenous, p27+/+ MEFs) (mouse (endogenous in MEFs)) (UniProt P46414); assay: co-IP
[4] = target: p27 (endogenous, p27+/+ MEFs) (mouse (endogenous in MEFs)) (UniProt P46414); assay: proximity ligation
[5] = target: RagC (endogenous, MEFs) (mouse (endogenous in MEFs)) (UniProt Q99K70); assay: co-IP
[6] = target: tagged LAMTOR1 (Figure 4G) (UniProt Q6IAA8); assay: co-IP

binding [1]: binds
Substance: p27 (endogenous, U251N cells) (from UniProt P46527 1-198)

binding [2]: binds
Substance: p27 (endogenous, p27+/+ MEFs) (from UniProt P46414 1-197)

binding [3]: no binding
Substance: LAMTOR2 (endogenous, MEFs) (from UniProt Q9JHS3 1-125)

binding [3]: no binding
Substance: LAMTOR3 (endogenous, MEFs) (from UniProt O88653 1-124)

binding [4]: binds
binding [5]: binds
binding [3]: binds
Substance: LAMTOR4 (endogenous, MEFs) (from UniProt Q8CF66 1-99)

binding [6]: binds
Substance: p27^Kip1 (from UniProt P46527 1-198)
